Experimental data taken from PubChem BioAssay AID2685 (National Center for Advancing Translational Sciences (NCATS), 2010).
This is one part of the list. Further columns of the screen follow, without active or inactive calls. Compounds called inactive in the main read-out are mostly missing here. Potencies come from curve fits of mixed quality, noted in brackets.

Assay: qHTS Assay for Lipid Storage Modulators in Drosophila S3 Cells;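 as to cell number change: cells counted by Cell Tracker Red CMTPX staining in the red channel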
Conditions: BODIPY lipid droplet fluorescence, 18-24 h; for cell number change: measured here: cell count max response, cells fed with added oleic acid
In short: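 Drosophila S3 cells loaded with oleic acid (400 uM, as added) and compounds at several concentrations; lipid droplets imaged by 488-nm laser-scanning cytometry, 500–530 nm intensity and object ratio to cell channel. Percent activity normalized to 20 uM Triacsin C.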

[1] = measured here: lipid fluorescence (Fed channel) AC50, cells fed with added oleic acid
[2] = measured here: cell number channel AC50, cells fed with added oleic acid

| SMILES | cell number change [%] | AC50 [1] | AC50 [2] |
| --- | --- | --- | --- |
| COc1ccc(NS(=O)(=O)c2cccc(C(=O)N/N=C(\C)c3cccnc3)c2)cc1 | 2.26 | 29.1 µM [falling, single point] |  |
| Cc1ccc(C(C(=O)NCc2ccccc2)N(C(=O)c2csnn2)C2CC2)cc1 (centres undefined) | 14.1 | 0.13 µM [rising, full curve, poor fit] |  |
| CCOC(=O)c1cnc(-n2nc(C)cc2C)[nH]c1=O | 6.51 | 20.6 µM [rising, single point] |  |
| Cc1cccc(-c2noc(CNC(=O)COc3ccccc3C)n2)c1 | -20.8 |  |  |
| C=CCSc1nc2ccccc2[nH]1 | 2.78 |  |  |
| CNC(=O)c1ccccc1F | -37.7 |  | 1.64 µM [falling, full curve, poor fit] |
| CCC(Sc1nc2cc3c(cc2c(=O)n1Cc1ccco1)OCO3)C(=O)Nc1cccc(OC)c1 (centres undefined) | -25.6 | 29.1 µM [falling, single point] |  |
| Cc1cccc(CSc2nc3ccncc3n2CC(=O)Nc2cc(C)cc(C)c2)c1 | 8.28 | 0.116 µM [falling, full curve, poor fit] |  |
| Cc1cccc(NC(=O)CCCN=C2NS(=O)(=O)c3ccccc32)c1C | -8.3 |  |  |
| CCOc1ccc(NC(=O)c2ccc3nccnc3c2)cc1 | 13.7 |  | 0.00411 µM [rising, full curve, poor fit] |
| O=C(NCCc1ccccc1F)C1CC(=O)N(c2ccccc2)C1 (centres undefined) | 3.72 | 29.1 µM [rising, single point] |  |
| COc1cccc(NC(=O)CN(C)C(=O)/C=C/c2cn(Cc3ccccc3)nc2-c2cccnc2)c1 | 87.6 |  | 14.6 µM [rising, partial curve] |
| O=S(=O)(/C=C/c1ccccc1)N1CCN(Cc2ccccc2)CC1 | -38.7 |  |  |
| COC(=O)c1ccnc(SCC(=O)c2ccccc2)c1 | -41.7 | 0.411 µM [falling, full curve, poor fit] | 0.116 µM [falling, full curve, poor fit] |
| COc1ccc(OC)c(S(=O)(=O)NCCO)c1 | 1.45 |  | 0.731 µM [falling, full curve] |
| O=C(c1ccc([N+](=O)[O-])cc1[N+](=O)[O-])n1cnc2ccccc21 | 108 |  | 29.1 µM [rising, partial curve, poor fit] |
| CCNC(=O)c1ccc(CSc2ccc(Cl)cc2)cc1 | -0.244 | 20.6 µM [rising, single point] |  |
| CCN1CC(CN(C)Cc2nc(-c3ccc(C(F)(F)F)cc3)no2)CC1=O (centres undefined) | -26.5 | 29.1 µM [falling, single point] |  |
| O=C(Nc1ccccc1N1CCCCC1)C1CC(=O)N(c2ccccc2F)C1 (centres undefined) | -13.2 |  |  |
| O=C(Cc1ccc(F)cc1)Nc1nccs1 | -9.89 | 29.1 µM [falling, single point] |  |

Some of the entries so far, as labelled records:
COc1ccc(NS(=O)(=O)c2cccc(C(=O)N/N=C(\C)c3cccnc3)c2)cc1
  cell number change [%]: 2.26; AC50 [1]: 29.1 µM [falling, single point]
Cc1cccc(NC(=O)CCCN=C2NS(=O)(=O)c3ccccc32)c1C
  cell number change [%]: -8.3
O=C(NCCc1ccccc1F)C1CC(=O)N(c2ccccc2)C1 (centres undefined)
  cell number change [%]: 3.72; AC50 [1]: 29.1 µM [rising, single point]

More results

| SMILES | cell number change [%] | AC50 [1] | AC50 [2] |
| --- | --- | --- | --- |
| Cc1nc(-c2ccc(NC(=O)C3CC3)cc2)cs1 | 32.5 |  |  |
| O=C(Nc1ccc(Cc2ccncc2)cc1)c1ccc(N2CCOCC2)c([N+](=O)[O-])c1 | 57.5 | 29.1 µM [rising, single point] | 32.6 µM [rising, single point] |
| CS(=O)(=O)c1ccc(Cl)c(NC(=O)COC(=O)c2c(Cl)cccc2Cl)c1 | -27.6 |  |  |
| CN1C(C(=O)NCc2cccc(C(F)(F)F)c2)CC2Cn3c(nc4cc5ccccc5cc43)C21 (centres undefined) | 28.4 | 8.2 µM [rising, partial curve] |  |
| COc1ccc(S(=O)(=O)N2CCN(C(=O)c3c(C)nn(-c4ccccc4)c3C)CC2)cc1 | 13.7 | 7.31 µM [falling, partial curve, poor fit] |  |
| O=C(Nc1ccc(C(=O)O)cc1)/C(=C/c1ccc2c(c1)OCO2)NC(=O)c1cccc(Br)c1 | 31 | 1.3 µM [rising, partial curve] | 0.00461 µM [rising, full curve, poor fit] |
| Cc1c(N(C)S(=O)(=O)c2cc(C(=O)NCC3CCCO3)ccc2Cl)c(=O)n(-c2ccccc2)n1C (centres undefined) | -30.7 | 29.1 µM [falling, single point] | 29.1 µM [falling, single point] |
| CCOC(=O)c1c(-c2cccc(C)c2)csc1NC(=O)C1CC=CCC1C(=O)O (centres undefined) | -17.1 | 1.46 µM [rising, partial curve] |  |
| CC(=O)OC(C)[C@H]1CC[C@H]2[C@@H]3CC[C@H]4C[C@@H](OC(C)=O)CC[C@]4(C)C3=CC[C@]12C (some centres undefined) | 21.7 |  |  |
| COc1ccc(OC)c(NC(=O)Cn2cc(C(=O)c3ccco3)c3ccccc32)c1 | 12.4 | 2.06 µM [rising, full curve] |  |
| CCO[C@@H]1c2c(ccc3ccc(=O)oc23)OC(C)(C)[C@H]1O | 5.29 | 20.6 µM [rising, single point] |  |
| COc1cc2c(cc1OC)CN(C(=O)CN1C(=O)NC3(CCC(C)CC3)C1=O)CC2 (centres undefined) | -17 |  | 0.291 µM [falling, full curve, poor fit] |
| O=C(CSc1nnc(C2CC2)n1-c1ccccc1)N1CCNC1=O | -9.65 | 6.51 µM [rising, single point] |  |
| C/C(=N\NC(=O)c1cccnc1)c1cc(C)oc1C | 13.4 | 0.116 µM [rising, partial curve, poor fit] | 0.13 µM [rising, full curve, poor fit] |
| COc1ccc(CC(=O)OCN2C(=O)c3ccccc3C2=O)cc1OC | 9.83 |  |  |
| COn1c(SCc2ccc(C)cc2C)nc2ccccc2c1=O | 14.3 | 20.6 µM [rising, single point] |  |
| COc1ccccc1-n1c(SCC(=O)O)nc2c(sc(=S)n2-c2ccc(Cl)c(C)c2)c1=O | 19.7 |  | 0.13 µM [rising, full curve, poor fit] |
| COc1ccc(CCNC(=O)Cc2c(Cl)cccc2Cl)cc1 |  | 6.51 µM [rising, single point] | 6.51 µM [rising, single point] |
| CCCNC(=O)C(Cc1cccc(C#N)c1)NC(=O)c1ccc(C#N)cc1 (centres undefined) | 16.3 | 32.6 µM [rising, single point] |  |
